The record followed here is patent US20050191735A1, “Oxidoreductase” (priority 2003, published 2005).

The data set concerns recombinant Lactobacillus reuteri oxidoreductase. The data set can be described thus: ee determination for selected substrates by GC. To be noted: 24 h, 1 to 2 units of oxidoreductase.

In the case of `CCOC(=O)CC(=O)CCl` [Ethyl 4-chloro-acetoacetate], the “Stereoselectivity (percent)” value worked out at 56%.

As to `COC(=O)CC(C)=O` [Methyl acetoacetate], the “Stereoselectivity (percent)” value turned out to be 78%.
